Results from patent US10175256B2, “Compositions and methods utilizing lysophosphatidylcholine scaffolds” (National University Of Singapore, priority 2013, dated 2019).

Experiment: Lipidomic analysis of brain, liver and heart phospholipids of WT and Mfsd2a KO mice (Table 2)
Format: in vivo
Settings: MS, normalized to internal standard

SMILES	Amount of lipid species, brain-KO1 (Mfsd2a KO mouse 1)	Amount of lipid species, brain-KO2 (Mfsd2a KO mouse 2)	Amount of lipid species, brain-KO3 (Mfsd2a KO mouse 3)	Amount of lipid species, brain-KO4 (Mfsd2a KO mouse 4)	Amount of lipid species, brain-WT1 (wild-type mouse 1)	Amount of lipid species, brain-WT2 (wild-type mouse 2)	Amount of lipid species, brain-WT3 (wild-type mouse 3)	Amount of lipid species, brain-WT4 (wild-type mouse 4)	Amount of lipid species, brain-WT5 (wild-type mouse 5)	Amount of lipid species, liver-KO1 (liver, Mfsd2a KO mouse 1)	Amount of lipid species, liver-KO2 (liver, Mfsd2a KO mouse 2)	Amount of lipid species, liver-KO3 (liver, Mfsd2a KO mouse 3)	Amount of lipid species, liver-KO4 (liver, Mfsd2a KO mouse 4)	Amount of lipid species, liver-WT1 (liver, wild-type mouse 1)	Amount of lipid species, liver-WT2 (liver, wild-type mouse 2)	Amount of lipid species, liver-WT3 (liver, wild-type mouse 3)	Amount of lipid species, liver-WT4 (liver, wild-type mouse 4)	Amount of lipid species, liver-WT5 (liver, wild-type mouse 5)
CCCCCCCCCCCCCCCCCC(=O)OC[C@@H](O)COP(=O)(O)O[C@@H]1[C@H](O)[C@H](O)[C@@H](O)[C@H](O)[C@H]1O [LPI18:0]	0.0005793 mol percent in total phospholipid analysed	0.0005906 mol percent in total phospholipid analysed	0.0008329 mol percent in total phospholipid analysed	0.0008095 mol percent in total phospholipid analysed	0.001577 mol percent in total phospholipid analysed	0.001227 mol percent in total phospholipid analysed	0.0004241 mol percent in total phospholipid analysed	0.001021 mol percent in total phospholipid analysed	0.0008441 mol percent in total phospholipid analysed									
CCCCCCCCCCCCCCCC(=O)OC[C@@H](O)COP(=O)(O)OCCN [LysoPE16:0]	0.2335 mol percent in total phospholipid analysed	0.13 mol percent in total phospholipid analysed	0.071 mol percent in total phospholipid analysed	0.1366 mol percent in total phospholipid analysed	0.1654 mol percent in total phospholipid analysed	0.2201 mol percent in total phospholipid analysed	0.1381 mol percent in total phospholipid analysed	0.1322 mol percent in total phospholipid analysed	0.1237 mol percent in total phospholipid analysed									
CCCCCCCCCCCCCCCCOC[C@@H](O)COP(=O)([O-])OCC[N+](C)(C)C [LysoPC16:0e]	0.004985 mol percent in total phospholipid analysed	0.004933 mol percent in total phospholipid analysed	0.004329 mol percent in total phospholipid analysed	0.004248 mol percent in total phospholipid analysed	0.002959 mol percent in total phospholipid analysed	0.003426 mol percent in total phospholipid analysed	0.003897 mol percent in total phospholipid analysed	0.00333 mol percent in total phospholipid analysed	0.003527 mol percent in total phospholipid analysed	0.007912 mol percent in total phospholipid analysed	0.007046 mol percent in total phospholipid analysed	0.007445 mol percent in total phospholipid analysed	0.006266 mol percent in total phospholipid analysed	0.005645 mol percent in total phospholipid analysed	0.00646 mol percent in total phospholipid analysed	0.005887 mol percent in total phospholipid analysed	0.005682 mol percent in total phospholipid analysed	0.005255 mol percent in total phospholipid analysed
